Some results were stated once for a whole list of compounds, not compound by compound.
Test system: SW13 and NCI-H295R cells
Test: Cell viability assay (CellTiter-Glo) and combination index
Type: cell-based, human
Conditions: combined with sHDL nanoparticles (25 and 50 μg/ml), Chou-Talalay, 72 h
Protocol: Serial dilutions were made from the starting concentrations and viability of cells was then measured based on quantification of the ATP levels after treatment with CellTiter-Glo luminescent assay reagent as per the manufacturer's instruction (Promega, Madison, Wis.) with luminescence quantified using a BioTek Synergy Neo plate reader (BioTek, Winooski, Vt.). […] For all cell-based experiments, the experimental control group was defined, unless stated otherwise, as untreated cells or cells treated with single drug alone (when comparing to combination regimens).

Structure (SMILES): Clc1ccc(C(c2ccccc2Cl)C(Cl)Cl)cc1 (stereo not shown) [mitotane]
- combination index (CI): < 1

Reference: patent publication US10220046B2, “Compositions and methods for disease treatment using nanoparticle delivered compounds” (THE REGENTS OF THE UNIVERSITY OF MICHIGAN, priority 2014, dated 2019)
